Laboratory results reported in patent US20210337847A1, “Mint Flavor Compositions” (The Procter & Gamble Company, priority 2020, published 2021).

Test: Expert sensory testing of racemic menthol versus (−)-menthol in a toothpaste formulation (CREST Cavity) with a standard spearmint flavor
Format: in vivo
Method: In separate, unpublished internal experiments, perceptual experiences of racemic menthol are quantified via expert sensory testing. The use of a standard spearmint flavor (minimizing extra menthol contribution) compared racemic menthol to (−)-menthol in a toothpaste formulation (CREST Cavity). There are several sensory observations taken from these experiments. […] These aromatic notes appear during brushing and disappear after 5-10 minutes post expectoration and are more pronounced as concentrations increase.

[1] = toothpaste (CREST Cavity), standard spearmint flavor

| Compound | Time after which the aromatic notes disappear post expectoration (greater than 5,000 part per million) | Aromatic character at higher concentration (greater than 5,000 part per million, notes appear during brushing) | Differences versus (−)-menthol in peppery burn, cooling vapors, thermal diffusion and cold [1] | Perception at equivalent concentration, compared with racemic menthol [1] |
| --- | --- | --- | --- | --- |
| CC1CCC(C(C)C)C(O)C1 (racemic) [Racemic Menthol, racemic menthol] | 5 to 10 min | pencil lead, burnt rubber, shoe rubber/leather and motor oil | no meaningful differences |  |
| CC1CCC(C(C)C)C(O)C1 (single isomer, unassigned; (-)) [(−)-Menthol, (−)-menthol] |  |  |  | colder, more minty, less bitter, less drying and delivers a high overall clean mouth sensation |
